According to the supplement of paper PMC10849652:
The other results are listed elsewhere or left out.

Chains of the proteins cited; added tags and fusions are not shown. Lines headed by an entry give the natural chain unless they say otherwise; changes in a name come on top.
UniProt Q15363: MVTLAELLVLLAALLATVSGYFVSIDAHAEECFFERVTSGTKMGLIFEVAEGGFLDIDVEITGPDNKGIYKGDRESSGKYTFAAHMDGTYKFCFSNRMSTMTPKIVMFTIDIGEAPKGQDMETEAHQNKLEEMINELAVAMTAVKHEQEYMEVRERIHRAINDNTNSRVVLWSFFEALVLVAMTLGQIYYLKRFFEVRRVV
UniProt Q9Y4G6: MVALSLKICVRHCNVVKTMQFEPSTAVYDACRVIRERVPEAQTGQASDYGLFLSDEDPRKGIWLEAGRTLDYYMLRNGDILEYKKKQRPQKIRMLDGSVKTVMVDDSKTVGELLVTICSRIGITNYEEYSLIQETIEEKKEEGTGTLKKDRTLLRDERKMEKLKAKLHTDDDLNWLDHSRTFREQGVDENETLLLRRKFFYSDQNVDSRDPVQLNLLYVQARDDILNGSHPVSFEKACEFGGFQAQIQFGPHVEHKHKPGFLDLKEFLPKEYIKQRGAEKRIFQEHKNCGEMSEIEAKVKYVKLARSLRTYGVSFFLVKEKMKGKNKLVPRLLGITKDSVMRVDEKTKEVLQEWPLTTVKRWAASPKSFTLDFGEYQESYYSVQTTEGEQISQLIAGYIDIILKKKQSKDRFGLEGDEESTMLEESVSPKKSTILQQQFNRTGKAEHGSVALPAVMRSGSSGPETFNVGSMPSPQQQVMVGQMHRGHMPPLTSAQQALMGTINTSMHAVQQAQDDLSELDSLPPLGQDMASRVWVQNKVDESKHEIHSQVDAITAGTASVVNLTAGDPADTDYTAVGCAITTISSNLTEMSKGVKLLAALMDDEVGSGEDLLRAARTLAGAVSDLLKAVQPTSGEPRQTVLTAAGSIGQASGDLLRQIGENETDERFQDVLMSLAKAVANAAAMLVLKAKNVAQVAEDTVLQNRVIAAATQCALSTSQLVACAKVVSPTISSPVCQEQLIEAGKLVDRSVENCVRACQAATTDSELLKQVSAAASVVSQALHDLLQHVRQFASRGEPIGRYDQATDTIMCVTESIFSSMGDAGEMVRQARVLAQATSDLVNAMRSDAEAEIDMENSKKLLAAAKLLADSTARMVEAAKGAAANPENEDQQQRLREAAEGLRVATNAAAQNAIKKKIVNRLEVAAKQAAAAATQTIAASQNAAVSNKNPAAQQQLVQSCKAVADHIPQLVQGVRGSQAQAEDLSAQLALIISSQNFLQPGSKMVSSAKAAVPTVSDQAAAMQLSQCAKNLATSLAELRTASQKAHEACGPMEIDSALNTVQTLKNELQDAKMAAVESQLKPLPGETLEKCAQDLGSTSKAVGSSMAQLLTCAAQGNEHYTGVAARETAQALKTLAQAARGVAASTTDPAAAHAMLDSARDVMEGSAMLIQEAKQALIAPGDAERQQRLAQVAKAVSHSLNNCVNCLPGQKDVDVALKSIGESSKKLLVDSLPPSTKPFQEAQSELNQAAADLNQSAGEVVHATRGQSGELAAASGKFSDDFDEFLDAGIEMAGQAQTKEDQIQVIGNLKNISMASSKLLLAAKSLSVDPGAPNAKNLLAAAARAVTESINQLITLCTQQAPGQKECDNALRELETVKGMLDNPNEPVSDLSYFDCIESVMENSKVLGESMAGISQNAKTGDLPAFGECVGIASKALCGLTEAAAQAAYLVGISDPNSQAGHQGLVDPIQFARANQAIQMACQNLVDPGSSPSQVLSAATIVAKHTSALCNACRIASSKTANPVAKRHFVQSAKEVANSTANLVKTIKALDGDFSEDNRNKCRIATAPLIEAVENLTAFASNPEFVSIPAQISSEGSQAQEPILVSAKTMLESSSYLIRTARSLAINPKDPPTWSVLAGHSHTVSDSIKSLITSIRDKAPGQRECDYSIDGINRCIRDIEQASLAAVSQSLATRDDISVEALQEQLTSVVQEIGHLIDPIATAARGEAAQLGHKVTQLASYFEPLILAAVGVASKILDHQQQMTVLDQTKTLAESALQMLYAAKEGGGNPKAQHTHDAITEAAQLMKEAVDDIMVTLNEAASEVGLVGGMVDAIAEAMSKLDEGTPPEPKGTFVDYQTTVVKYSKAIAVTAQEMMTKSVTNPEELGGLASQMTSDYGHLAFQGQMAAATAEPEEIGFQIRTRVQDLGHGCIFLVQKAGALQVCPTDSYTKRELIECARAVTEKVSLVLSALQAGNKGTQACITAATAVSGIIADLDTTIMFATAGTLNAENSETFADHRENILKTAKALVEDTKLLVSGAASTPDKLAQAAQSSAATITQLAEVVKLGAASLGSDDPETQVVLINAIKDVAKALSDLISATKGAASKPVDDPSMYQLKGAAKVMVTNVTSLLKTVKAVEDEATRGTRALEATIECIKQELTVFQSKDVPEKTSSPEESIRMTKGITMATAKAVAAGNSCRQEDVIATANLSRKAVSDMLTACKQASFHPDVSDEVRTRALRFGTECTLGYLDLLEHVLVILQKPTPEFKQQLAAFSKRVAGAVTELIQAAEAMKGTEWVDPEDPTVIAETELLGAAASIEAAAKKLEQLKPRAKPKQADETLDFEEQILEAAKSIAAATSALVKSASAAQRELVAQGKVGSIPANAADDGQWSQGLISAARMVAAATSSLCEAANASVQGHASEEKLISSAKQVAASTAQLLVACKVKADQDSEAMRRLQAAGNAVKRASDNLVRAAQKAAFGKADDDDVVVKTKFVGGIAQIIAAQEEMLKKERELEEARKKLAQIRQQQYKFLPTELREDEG
UniProt Q5BJF2, whole entry, looked up: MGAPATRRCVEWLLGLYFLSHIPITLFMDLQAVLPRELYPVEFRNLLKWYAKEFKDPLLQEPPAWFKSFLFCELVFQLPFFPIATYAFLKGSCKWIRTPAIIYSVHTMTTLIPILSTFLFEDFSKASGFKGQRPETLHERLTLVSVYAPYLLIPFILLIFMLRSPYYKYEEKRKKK
UniProt Q9H1E5: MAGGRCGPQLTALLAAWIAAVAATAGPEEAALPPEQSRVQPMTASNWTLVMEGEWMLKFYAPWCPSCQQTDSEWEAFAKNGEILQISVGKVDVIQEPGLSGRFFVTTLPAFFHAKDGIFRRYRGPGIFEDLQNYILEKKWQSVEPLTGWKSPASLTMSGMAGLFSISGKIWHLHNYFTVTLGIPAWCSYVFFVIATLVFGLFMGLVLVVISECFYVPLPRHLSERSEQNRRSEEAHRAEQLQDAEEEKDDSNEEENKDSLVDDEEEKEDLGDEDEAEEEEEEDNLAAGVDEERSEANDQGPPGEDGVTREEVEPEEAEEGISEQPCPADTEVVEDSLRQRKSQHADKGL
UniProt Q8TBQ9: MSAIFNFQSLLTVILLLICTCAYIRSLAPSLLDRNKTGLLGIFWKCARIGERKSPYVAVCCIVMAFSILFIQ
UniProt Q9Y320, whole entry, looked up: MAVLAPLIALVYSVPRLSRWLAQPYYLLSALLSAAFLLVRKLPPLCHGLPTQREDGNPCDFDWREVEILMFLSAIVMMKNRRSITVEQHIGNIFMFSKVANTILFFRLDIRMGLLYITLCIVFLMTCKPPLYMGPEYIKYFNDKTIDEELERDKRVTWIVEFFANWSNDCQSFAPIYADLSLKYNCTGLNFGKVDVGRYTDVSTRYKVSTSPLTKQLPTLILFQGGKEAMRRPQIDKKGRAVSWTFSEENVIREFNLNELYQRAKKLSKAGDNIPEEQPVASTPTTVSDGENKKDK
UniProt P17152: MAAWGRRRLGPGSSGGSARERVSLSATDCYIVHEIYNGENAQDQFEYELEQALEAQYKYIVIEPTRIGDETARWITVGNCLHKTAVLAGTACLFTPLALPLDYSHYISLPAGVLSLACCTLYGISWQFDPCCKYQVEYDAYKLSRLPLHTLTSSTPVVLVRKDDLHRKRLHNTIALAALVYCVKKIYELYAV
UniProt Q13445: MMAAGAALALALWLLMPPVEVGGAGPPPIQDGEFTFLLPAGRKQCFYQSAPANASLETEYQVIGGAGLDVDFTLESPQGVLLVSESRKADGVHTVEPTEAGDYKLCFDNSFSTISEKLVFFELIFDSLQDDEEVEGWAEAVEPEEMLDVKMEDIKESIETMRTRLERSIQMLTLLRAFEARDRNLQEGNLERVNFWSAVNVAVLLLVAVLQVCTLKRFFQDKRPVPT
UniProt P57088: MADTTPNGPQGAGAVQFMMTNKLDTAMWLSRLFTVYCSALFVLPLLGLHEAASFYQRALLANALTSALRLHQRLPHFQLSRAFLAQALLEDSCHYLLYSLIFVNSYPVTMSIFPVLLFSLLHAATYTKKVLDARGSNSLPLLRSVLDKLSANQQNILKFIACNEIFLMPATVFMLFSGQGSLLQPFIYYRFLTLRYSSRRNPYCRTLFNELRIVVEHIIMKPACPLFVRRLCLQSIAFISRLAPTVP
UniProt Q96A57: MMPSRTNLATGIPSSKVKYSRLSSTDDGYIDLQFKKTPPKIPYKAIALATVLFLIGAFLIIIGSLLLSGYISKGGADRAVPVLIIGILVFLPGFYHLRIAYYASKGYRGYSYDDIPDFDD
UniProt Q12893: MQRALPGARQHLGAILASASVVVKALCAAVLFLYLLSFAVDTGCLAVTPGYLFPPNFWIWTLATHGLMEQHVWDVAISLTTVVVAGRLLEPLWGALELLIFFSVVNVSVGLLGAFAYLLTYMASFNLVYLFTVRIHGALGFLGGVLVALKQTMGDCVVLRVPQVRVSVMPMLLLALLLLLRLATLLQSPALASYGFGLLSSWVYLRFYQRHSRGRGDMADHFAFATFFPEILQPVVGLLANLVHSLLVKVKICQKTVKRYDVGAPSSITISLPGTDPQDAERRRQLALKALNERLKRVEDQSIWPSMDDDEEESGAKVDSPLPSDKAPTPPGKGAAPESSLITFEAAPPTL
UniProt Q9Y2S6, whole entry, looked up: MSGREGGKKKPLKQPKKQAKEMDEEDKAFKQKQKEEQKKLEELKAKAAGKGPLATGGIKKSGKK
UniProt Q8N511: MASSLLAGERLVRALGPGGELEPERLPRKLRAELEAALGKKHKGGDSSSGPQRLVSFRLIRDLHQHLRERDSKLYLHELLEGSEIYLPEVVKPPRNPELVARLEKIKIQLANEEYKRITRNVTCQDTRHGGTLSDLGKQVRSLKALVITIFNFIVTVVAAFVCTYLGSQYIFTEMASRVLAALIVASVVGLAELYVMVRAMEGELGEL
UniProt Q9H7F4: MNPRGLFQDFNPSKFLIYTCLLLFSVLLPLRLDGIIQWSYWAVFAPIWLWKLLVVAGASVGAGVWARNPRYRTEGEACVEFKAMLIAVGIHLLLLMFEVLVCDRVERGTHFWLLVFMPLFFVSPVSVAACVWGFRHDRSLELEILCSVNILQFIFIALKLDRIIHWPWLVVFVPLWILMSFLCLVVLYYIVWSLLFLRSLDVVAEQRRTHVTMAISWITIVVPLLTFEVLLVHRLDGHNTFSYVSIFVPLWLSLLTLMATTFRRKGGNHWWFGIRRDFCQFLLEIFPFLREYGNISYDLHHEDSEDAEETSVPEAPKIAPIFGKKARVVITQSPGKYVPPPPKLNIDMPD
UniProt Q9UM00: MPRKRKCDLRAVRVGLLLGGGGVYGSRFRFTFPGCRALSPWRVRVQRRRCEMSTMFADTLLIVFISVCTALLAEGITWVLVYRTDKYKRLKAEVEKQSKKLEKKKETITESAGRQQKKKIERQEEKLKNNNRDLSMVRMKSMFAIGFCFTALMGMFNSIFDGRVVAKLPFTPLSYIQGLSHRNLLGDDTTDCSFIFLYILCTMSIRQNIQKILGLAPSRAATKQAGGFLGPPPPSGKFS
UniProt Q0P6H9: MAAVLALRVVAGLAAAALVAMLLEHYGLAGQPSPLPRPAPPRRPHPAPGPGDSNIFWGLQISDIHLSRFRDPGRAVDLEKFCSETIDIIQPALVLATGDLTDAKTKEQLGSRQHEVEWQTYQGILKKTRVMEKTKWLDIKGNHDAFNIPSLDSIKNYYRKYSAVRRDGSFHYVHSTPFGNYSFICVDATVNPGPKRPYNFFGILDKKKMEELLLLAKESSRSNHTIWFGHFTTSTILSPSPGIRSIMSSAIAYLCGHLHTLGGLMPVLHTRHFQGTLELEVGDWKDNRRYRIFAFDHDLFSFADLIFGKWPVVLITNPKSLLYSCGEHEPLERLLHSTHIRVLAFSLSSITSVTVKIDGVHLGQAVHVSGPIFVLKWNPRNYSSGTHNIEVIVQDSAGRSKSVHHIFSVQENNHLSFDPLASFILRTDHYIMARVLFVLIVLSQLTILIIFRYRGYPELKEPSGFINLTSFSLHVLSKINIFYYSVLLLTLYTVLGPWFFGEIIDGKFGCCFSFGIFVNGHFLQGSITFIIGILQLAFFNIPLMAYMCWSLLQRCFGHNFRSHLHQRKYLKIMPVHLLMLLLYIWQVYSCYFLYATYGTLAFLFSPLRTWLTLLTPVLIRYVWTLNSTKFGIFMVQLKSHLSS

Assays:
Test in all cases: log2 fold change, soluble protein after heating vs DMSO (PISA); higher = thermal stabilisation; K562 cells, 10 uM, 30 min; active = over 0.2 and 3.5 SD of the protein, either way, in both replicates (recomputed)
[1] = compound: CC1=C(C=C(C=C1)NC(=O)C2=CC(=CC=C2)C(C)(C)C#N)NC3=CC4=C(C=C3)N=CN(C4=O)C
Summary of the method: (§1)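 Soluble protein was defined as the supernatant after 21,000xg for 90 min. It came from K562 cells at 2×10^6 cells/mL given 10 μM compound for 30 min, heated in aliquots for 3 min across 48°C-58°C, pooled, and extracted in PBS with 0.5% NP-40 at 4°C, and was quantified by TMTpro 16plex LC-MS/MS with equalised channel sums. Thermal stability against control samples, from duplicates, is reported as log2 fold change.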

[2] = compound: CC1=C(C=C(C=C1)NC(=O)C2=CC(=CC=C2)N(C)C)NC(=O)C3=CC=C(C=C3)O
Summary of the method: as §1

[3] = compound: CC1=CC=C(C=C1)SC2=C3C=C(SC3=CN=C2)C(=O)N
Summary of the method: as §1

[4] = compound: CC1=NC(=CC=C1)C2=C(N=C(N2)C(C)(C)C)C3=CC4=NC=CN=C4C=C3
Summary of the method: as §1

Nexturastat A = compound: CCCCN(Cc1ccc(C(=O)NO)cc1)C(=O)Nc1ccccc1 [Nexturastat A]
Summary of the method: as §1

vemurafenib = compound: CCCS(=O)(=O)Nc1ccc(F)c(C(=O)c2c[nH]c3ncc(-c4ccc(Cl)cc4)cc23)c1F [vemurafenib]
Summary of the method: as §1

[5] = compound: CCCS(=O)(=O)Nc1ccc(F)c(C(=O)c2c[nH]c3ncc(Cl)cc23)c1F
Summary of the method: as §1

[6] = compound: CCCc1cc(C)[nH]c(=O)c1CNC(=O)c1cc(-c2ccnc(N3CCN(C)CC3)c2)cc2c1cnn2C(C)C
Summary of the method: as §1

givinostat = compound: CCN(CC)Cc1ccc2cc(COC(=O)Nc3ccc(C(=O)NO)cc3)ccc2c1 [givinostat]
Summary of the method: as §1

barasertib = compound: CCN(CCCOc1ccc2c(Nc3cc(CC(=O)Nc4cccc(F)c4)[nH]n3)ncnc2c1)CCOP(=O)(O)O [barasertib]
Summary of the method: as §1

[7] = compound: CC[C@@H]1C(=O)N(C)c2cnc(Nc3ccc(C(=O)NC4CCN(C)CC4)cc3OC)nc2N1C1CCCC1
Summary of the method: as §1

volasertib = compound: CC[C@@H]1C(=O)N(C)c2cnc(Nc3ccc(C(=O)N[C@H]4CC[C@H](N5CCN(CC6CC6)CC5)CC4)cc3OC)nc2N1C(C)C [volasertib]
Summary of the method: as §1

[8] = compound: CC[C@H](C)N1C=C(C2=C(C=C(C=C21)C3=CN=C(C=C3)N4CCNCC4)C(=O)NCC5=C(C=C(NC5=O)C)C)C
Summary of the method: as §1

epoxomicin = compound: CC[C@H](C)[C@@H](C(=O)N[C@@H]([C@@H](C)O)C(=O)N[C@@H](CC(C)C)C(=O)[C@]1(CO1)C)NC(=O)[C@H]([C@@H](C)CC)N(C)C(=O)C [epoxomicin]
Summary of the method: as §1

[9] = compound: CCn1c(C(=O)N(C2CC2)C2CC2)cc2c3c(ncn3C)c(Nc3cc(C)n(C)n3)nc21
Summary of the method: as §1

[10] = compound: CCn1cc(-c2ccnc3[nH]c(-c4cccc(CN(C)C)c4)cc23)c(-c2ccc(NC(=O)N(C)C)cc2)n1
Summary of the method: as §1

[11] = compound: CN(C)CC(=O)Nc1ccc2[nH]c(=O)c3ccccc3c2c1
Summary of the method: as §1

rosiglitazone = compound: CN(CCOC1=CC=C(C=C1)C[C@H]2C(=O)NC(=O)S2)C3=CC=CC=N3 (racemic) [rosiglitazone]
Summary of the method: as §1

[12] = compound: CN1C2=C(C3=C1C(=O)N(N=C3)CC4=CC(=CC=C4)N)SC(=C2)S(=O)C
Summary of the method: as §1

[13] = compound: CN1CCC(CNc2ccc3ncc(-c4cccc(OC(F)(F)F)c4)n3n2)CC1
Summary of the method: as §1

Measured: log2 fold change

TMED2 (UniProt Q15363)
inactive: [1] 0.004 | [2] 0.001 | [3] 0.037 | [4] 0.015 | Nexturastat A -0.066 | vemurafenib 0.054 | [5] 0.078 | [6] -0.003 | givinostat 0.009 | barasertib -0.015 | [7] 0.019 | volasertib -0.005 | [8] -0.014 | epoxomicin 0.031 | [9] 0.066 | [10] 0.025 | [11] -0.008 | rosiglitazone 0.011 | [12] -0.006 | [13] -0.039

TLN2 (UniProt Q9Y4G6)
inactive: [1] 0.01 | [2] -0.003 | [3] 0.006 | [4] 0.012 | Nexturastat A -0.001 | vemurafenib 0.053 | [5] 0.075 | [6] 0.049 | givinostat 0.025 | barasertib -0.043 | [7] 0.076 | volasertib 0.012 | [8] -0.016 | epoxomicin 0.065 | [9] -0.023 | [10] 0.038 | [11] 0.02 | rosiglitazone 0.045 | [12] 0.113 | [13] 0.071

TMEM97 (UniProt Q5BJF2)
inactive: [1] 0.007 | [2] 0.016 | [3] 0.035 | [4] -0.036 | Nexturastat A -0.058 | vemurafenib -0.035 | [5] -0.091 | [6] -0.059 | givinostat 0.004 | barasertib -0.017 | [7] 0.007 | volasertib 0.147 | [8] -0.067 | epoxomicin -0.056 | [9] 0.037 | [10] -0.005 | [11] -0.035 | rosiglitazone 0.017 | [12] -0.031 | [13] 0.105

TMX4 (UniProt Q9H1E5)
inactive: [1] -0.009 | [2] 0.032 | [3] -0.067 | [4] -0.092 | Nexturastat A 0.005 | vemurafenib -0.023 | [5] -0.085 | [6] -0.024 | givinostat 0 | barasertib 0.03 | [7] 0.006 | volasertib 0.008 | [8] -0.028 | epoxomicin -0.002 | [9] -0.081 | [10] 0.038 | [11] 0.047 | rosiglitazone -0.012 | [12] 0.103 | [13] 0.035

TMEM167A (UniProt Q8TBQ9)
inactive: [1] 0.06 | [2] -0.037 | [3] -0.006 | [4] 0.027 | Nexturastat A -0.047 | vemurafenib -0.165 | [5] 0.038 | [6] -0.116 | givinostat -0.042 | barasertib 0.008 | [7] 0.033 | volasertib 0.084 | [8] -0.101 | epoxomicin 0.005 | [9] 0.024 | [10] -0.033 | [11] 0.056 | rosiglitazone -0.035 | [12] -0.068 | [13] 0.023

TMX2 (UniProt Q9Y320)
inactive: [1] -0.052 | [2] 0.011 | [3] 0.062 | [4] -0.005 | Nexturastat A -0.05 | vemurafenib -0.001 | [5] -0.03 | [6] -0.038 | givinostat 0.016 | barasertib -0.002 | [7] 0.04 | volasertib -0.006 | [8] 0.007 | epoxomicin 0.066 | [9] 0.025 | [10] -0.066 | [11] 0.037 | rosiglitazone 0.052 | [12] -0.079 | [13] 0.025

TMEM11 (UniProt P17152)
inactive: [1] -0.063 | [2] -0.031 | [3] 0.023 | [4] 0.051 | Nexturastat A -0.085 | vemurafenib 0.003 | [5] 0.009 | [6] -0.007 | givinostat -0.074 | barasertib 0.012 | [7] -0.055 | volasertib -0.003 | [8] 0.005 | epoxomicin -0.022 | [9] 0.046 | [10] -0.04 | [11] 0.034 | rosiglitazone 0.042 | [12] -0.111 | [13] -0.01

TMED1 (UniProt Q13445)
inactive: [1] -0.029 | [2] 0.014 | [3] 0.057 | [4] 0.09 | Nexturastat A -0.044 | vemurafenib 0.042 | [5] 0.01 | [6] 0.083 | givinostat 0.009 | barasertib 0.063 | [7] 0.064 | volasertib 0.033 | [8] -0.042 | epoxomicin 0.107 | [9] 0 | [10] 0.002 | [11] -0.031 | rosiglitazone 0.036 | [12] -0.128 | [13] 0.003

Quoted at random: 2 records from the list
TMX2 (UniProt Q9Y320)
inactive: [1] -0.052 | [2] 0.011 | [3] 0.062 | [4] -0.005 | Nexturastat A -0.05 | vemurafenib -0.001 | [5] -0.03 | [6] -0.038 | givinostat 0.016 | barasertib -0.002 | [7] 0.04 | volasertib -0.006 | [8] 0.007 | epoxomicin 0.066 | [9] 0.025 | [10] -0.066 | [11] 0.037 | rosiglitazone 0.052 | [12] -0.079 | [13] 0.025

TMEM11 (UniProt P17152)
inactive: [1] -0.063 | [2] -0.031 | [3] 0.023 | [4] 0.051 | Nexturastat A -0.085 | vemurafenib 0.003 | [5] 0.009 | [6] -0.007 | givinostat -0.074 | barasertib 0.012 | [7] -0.055 | volasertib -0.003 | [8] 0.005 | epoxomicin -0.022 | [9] 0.046 | [10] -0.04 | [11] 0.034 | rosiglitazone 0.042 | [12] -0.111 | [13] -0.01

Additional results follow.

TMEM33 (UniProt P57088)
inactive: [1] 0.067 | [2] -0.045 | [3] 0.014 | [4] -0.001 | Nexturastat A -0.077 | vemurafenib 0.03 | [5] 0.009 | [6] -0.036 | givinostat 0.021 | barasertib -0.052 | [7] 0.036 | volasertib -0.008 | [8] -0.031 | epoxomicin 0.002 | [9] 0.014 | [10] 0 | [11] 0.055 | rosiglitazone 0.01 | [12] -0.073 | [13] 0.103

TMEM230 isoform 2 (UniProt Q96A57)
inactive: [1] 0.035 | [2] 0.024 | [3] 0.063 | [4] 0.045 | Nexturastat A -0.049 | vemurafenib -0.021 | [5] -0.015 | [6] -0.034 | givinostat -0.013 | barasertib -0.126 | [7] 0.017 | volasertib 0.013 | [8] -0.005 | epoxomicin 0.03 | [9] 0.085 | [10] -0.045 | [11] -0.042 | rosiglitazone 0.046 | [12] 0.035 | [13] 0.025

TMEM115 (UniProt Q12893)
inactive: [1] -0.017 | [2] 0.062 | [3] 0.022 | [4] -0.018 | Nexturastat A -0.091 | vemurafenib -0.069 | [5] 0.002 | [6] -0.054 | givinostat 0.012 | barasertib -0.009 | [7] -0.021 | volasertib -0.009 | [8] -0.076 | epoxomicin -0.001 | [9] 0.002 | [10] 0.006 | [11] -0.023 | rosiglitazone 0.001 | [12] 0 | [13] 0.058

TMA7 (UniProt Q9Y2S6)
inactive: [1] -0.104 | [2] 0.024 | [3] -0.02 | [4] -0.003 | Nexturastat A -0.005 | vemurafenib -0.02 | [5] -0.059 | [6] -0.043 | givinostat -0.083 | barasertib 0.023 | [7] -0.024 | volasertib 0.067 | [8] -0.069 | epoxomicin 0.001 | [9] 0.034 | [10] 0.048 | [11] -0.034 | rosiglitazone -0.02 | [12] -0.071 | [13] 0.002

TMEM199 (UniProt Q8N511)
inactive: [1] -0.008 | [2] -0.052 | [3] 0.025 | [4] -0.061 | Nexturastat A -0.01 | vemurafenib -0.062 | [5] 0.006 | [6] -0.043 | givinostat 0.014 | barasertib -0.007 | [7] -0.094 | volasertib 0.014 | [8] -0.018 | epoxomicin -0.001 | [9] -0.019 | [10] 0.026 | [11] -0.002 | rosiglitazone 0.004 | [12] -0.048 | [13] 0.028

TMEM185B (UniProt Q9H7F4)
inactive: [1] 0.018 | [2] -0.129 | [3] 0.029 | [4] 0.022 | Nexturastat A 0.011 | vemurafenib -0.106 | [5] 0.024 | [6] -0.133 | givinostat -0.114 | barasertib -0.003 | [7] -0.094 | volasertib -0.027 | [8] -0.061 | epoxomicin -0.019 | [9] -0.055 | [10] 0.063 | [11] 0.018 | rosiglitazone 0.007 | [12] 0.067 | [13] -0.192

TMCO1 (UniProt Q9UM00)
inactive: [1] 0.01 | [2] -0.035 | [3] -0.088 | [4] 0.066 | Nexturastat A -0.161 | vemurafenib 0.081 | [5] -0.18 | [6] -0.031 | givinostat 0.075 | barasertib 0.01 | [7] -0.168 | volasertib -0.118 | [8] -0.024 | epoxomicin -0.027 | [9] 0.015 | [10] 0.032 | [11] 0 | rosiglitazone 0.024 | [12] -0.024 | [13] 0.004

TMEM62 (UniProt Q0P6H9)
inactive: [1] 0.013 | [2] -0.042 | [3] 0.086 | [4] -0.039 | Nexturastat A -0.046 | vemurafenib -0.044 | [5] 0.07 | [6] 0.119 | givinostat -0.012 | barasertib -0.016 | [7] 0.047 | volasertib 0.031 | [8] -0.04 | epoxomicin 0.059 | [9] 0.032 | [10] 0.015 | [11] -0.048 | rosiglitazone 0.033 | [12] -0.033 | [13] -0.002
